From PubChem BioAssay AID2685 (National Center for Advancing Translational Sciences (NCATS), 2010) come the findings set out here.

Some of the results follow. The main result of the screen is listed elsewhere. These columns were measured beside it and carry no call. The list favours compounds with an active or inconclusive main result. Words in brackets tell the shape of the fitted curve; partial curves, single points and poor fits give uncertain potencies.

The experiment is described as follows: qHTS Assay for Lipid Storage Modulators in Drosophila S3 Cells.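 On cell number change: cells counted by Cell Tracker Red CMTPX staining in the red channel.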 Particulars: BODIPY lipid droplet fluorescence, 18-24 h; for cell number change: measured here: cell count max response, cells fed with added oleic acid. Put shortly: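 Drosophila S3 cells loaded with oleic acid (400 uM, as added) and compounds at several concentrations; lipid droplets imaged by 488-nm laser-scanning cytometry, 500–530 nm intensity and object ratio to cell channel. Percent activity normalized to 20 uM Triacsin C.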
A general note: qHTS replaces the single test concentration by a dilution series.

Setting [1] is: measured here: cell number channel AC50, cells fed with added oleic acid.
[2] abbreviates: measured here: lipid fluorescence (Fed channel) AC50, cells fed with added oleic acid.

Regarding `Cc1cc(-n2ccc(=O)[nH]c2=O)nc(-c2ccccc2)n1`, the cell number change was -20.2%. Under setting [1], the AC50 is 0.0731 µM [falling, full curve, poor fit]. For the compound `CC(CN1CCN(C)CC1)OC(=O)c1cccc(Cl)c1` (centres undefined), the cell number change came out at 24.5%. On to `CCOC(=O)c1cccc(N2C(=O)C3C(C(=O)NC4CC4)C4(C)C=CC3(O4)C2C(=O)NC(C)(C)C)c1` (centres undefined), for which the cell number change was found to be 10.6%. Besides, the AC50 under setting [2] was 23.1 µM [falling, single point]. Regarding `COc1ccccc1N1CCN(C(=O)c2ccc3[nH]c4c(c3c2)CC(C)CC4)CC1` (centres undefined), the cell number change was -8.41%. With `COc1ccc(NCCc2ccccn2)cc1`, the cell number change is -11%. Also, under setting [2], the AC50 was 0.13 µM [rising, full curve, poor fit]. As to `O=C(C1CCCC1)N1CCC(CC2CC(c3cccc(Br)c3)=NO2)(C(=O)NCC2CCCCC2)CC1` (centres undefined), the cell number change worked out at 33.3%. Besides, under setting [1], the AC50 was 29.1 µM [rising, single point].

For `Cc1cc(OC(C)C(=O)NCc2ccccn2)c2c(C)c(Cc3ccccc3)c(=O)oc2c1` (centres undefined), the cell number change was -21.5%. Also, the half-maximal activity concentration (AC50) under setting [2] is 23.1 µM [falling, single point].

With `COc1ccccc1-n1c(SCC(=O)NCc2ccc3c(c2)OCO3)nc2cc([N+](=O)[O-])ccc21`, the cell number change is 11.5%. Moreover, the AC50 under setting [2] is 0.517 µM [rising, single point].

Turning to `C=CCN(c1ccccc1OC)S(=O)(=O)c1cccc(C(=O)OCC(=O)c2c[nH]c3ccccc23)c1`, the cell number change is -26.8%. Besides, under setting [2], the AC50 is 32.6 µM [falling, single point]. For the compound `CS(=O)(=O)NCCSCc1ccco1`, the cell number change is -0.419%.

Turning to `Cc1ccc(NC(=S)NC(=O)C2CCC2)cc1C`, the cell number change was -12.4%. Moreover, the AC50 under setting [2] is 16.4 µM [rising, partial curve].

Regarding `C/C(=N\NC(=O)CC(C)C)c1ccc(Cl)c(Cl)c1`, the cell number change was -56.1%. Also, the AC50 under setting [1] is 20.6 µM [falling, partial curve, poor fit]. Regarding `O=C(Nc1ccncc1)c1cc(-c2ccccn2)nc2ccccc12`, the cell number change amounted to 30.4%. Besides, the concentration at half-maximal activity (AC50) under setting [1] was 2.31 µM [rising, partial curve, poor fit]. Moreover, under setting [2], the AC50 is 2.91 µM [rising, partial curve, poor fit]. In the case of `O=C(NCc1ccccc1)C1CC(=O)N(C2CCCCCC2)C1` (centres undefined), the cell number change came out at 31%. Under setting [1], the AC50 was 29.1 µM [rising, single point]. For the same compound, the concentration at half-maximal activity (AC50) under setting [2] was 20.6 µM [rising, single point].

Take `C[N+]1(CCCOC(=O)C2(c3ccccc3)CCCC2)CCOCC1`: the cell number change was -19.6%. Under setting [2], the half-maximal activity concentration (AC50) was 0.0164 µM [falling, full curve, poor fit]. For `CN1C[C@@H]2C(c3ccc(Cl)nc3)C3(c4cccnc4)CC2(C3)[C@H]1c1ccccc1` (some centres undefined), the cell number change amounted to 17.3%. Also, the AC50 under setting [2] is 0.082 µM [rising, full curve, poor fit]. `CCCCOCCCNC(=O)C1CCCCC1`: the cell number change is 5.85%. Under setting [2], the AC50 was 1.64 µM [falling, full curve, poor fit]. With `O=C(CN(c1ccccc1)S(=O)(=O)c1ccccc1)NCCSCc1ccco1`, the cell number change is 62.6%. The AC50 under setting [1] is 11.6 µM [rising, partial curve]. For the same compound, under setting [2], the half-maximal activity concentration (AC50) is 4.61 µM [rising, single point]. In the case of `CC1=NN(C(N)=S)C(=O)C1N=Nc1c(C)cc(C)cc1C` (centres undefined), the cell number change came out at 107%. Further, the concentration at half-maximal activity (AC50) under setting [1] is 0.92 µM [rising, partial curve]. In addition, the AC50 under setting [2] was 2.31 µM [rising, partial curve]. `N/C(=N\OC(=O)c1ccc([N+](=O)[O-])cc1Cl)c1ccccn1`: the cell number change was -11.5%. Turning to `Nc1c(C(=O)NCCN2CCOCC2)c2nc3ccccc3nc2n1-c1ccccc1`, the cell number change was -6.52%. Also, under setting [2], the AC50 was 0.92 µM [rising, partial curve]. As for `C=C(C)COc1ccc(-c2nc(N)ncc2-c2ccc(OC)cc2)c(O)c1`, the cell number change was -13%. Also, the concentration at half-maximal activity (AC50) under setting [2] was 29.1 µM [falling, single point]. For `COCCSc1nnc(NS(=O)(=O)Cc2ccccc2)s1`, the cell number change was 3.52%. The AC50 under setting [2] was 2.06 µM [falling, partial curve, poor fit]. Turning to `CC1=C(C#N)C(NC(=O)c2ccc(C)cc2)(C(F)(F)F)C(=O)N1` (centres undefined), the AC50 under setting [2] was 0.00461 µM [falling, full curve, poor fit]. Turning to `CC(=O)N1CCN(c2ccc(NC(=S)NC(=O)COc3ccc(C(C)(C)C)cc3)cc2)CC1`, the cell number change was -46.6%. For the same compound, the AC50 under setting [1] is 2.06 µM [falling, partial curve]. The AC50 under setting [2] was 2.06 µM [falling, partial curve]. For the compound `CCN(Cc1nc(-c2ccc(OC)c(OC)c2)no1)C(=O)c1ccc2c(c1)OCO2`, the cell number change came out at 4.17%. Also, under setting [2], the AC50 was 1.16 µM [falling, single point]. `Cc1ccc(CSCC(=O)N(C)CC(=O)Nc2ccc(Br)cc2C)cc1`: the cell number change is -28.8%. Also, the AC50 under setting [2] was 14.6 µM [falling, partial curve]. With `COc1ccc(NC(=O)CN(C)CC(=O)Nc2cccc(C(F)(F)F)c2)cc1`, the cell number change is -14%. Still for that read-out and setting: as for `COc1ccc(NC(=O)c2cc(=O)[nH]c(=O)[nH]2)cc1S(=O)(=O)Nc1ccccc1Cl`, the figure is 31%.

For `Cc1cc(C)n2nc(SC(C)C(=O)N(C)c3ccccc3)nc2n1` (centres undefined), the cell number change was 14.3%. Further, the concentration at half-maximal activity (AC50) under setting [1] was 6.51 µM [falling, single point]. For `O=c1nc(Nc2cccc(Cl)c2)oc2cc(Cl)oc(=O)c12`, the cell number change was -0.438%. Besides, the half-maximal activity concentration (AC50) under setting [2] was 29.1 µM [rising, partial curve]. `Cc1ccc(NC(=O)/C(Cl)=C\c2ccccc2)cc1`: the cell number change was 8.52%. Also, the concentration at half-maximal activity (AC50) under setting [2] is 7.31 µM [rising, partial curve, poor fit].

`COc1ccc(-c2c(C)oc3c(CN4CCCCC4C)c(O)ccc3c2=O)cc1OC` (centres undefined): the cell number change was -13.7%. Take `CC(=O)NCC(c1cccs1)S(=O)(=O)c1ccc(F)cc1` (centres undefined): the half-maximal activity concentration (AC50) under setting [2] is 0.103 µM [rising, single point]. Consider `Cc1sc2nc(C(C)Sc3n[nH]c(N)n3)[nH]c(=O)c2c1C` (centres undefined), for which the cell number change stood at 68.5%. `O=C(N/N=C/c1cccc(O)c1)c1csc2ccccc12`: the cell number change is -11%. Consider `C=CCOC(=O)c1c(C)nc2cc3c(cc2c1C)OCO3`, for which the cell number change turned out to be 7.54%. The AC50 under setting [2] is 0.00411 µM [rising, full curve, poor fit].

Take `Cc1[nH]c2ccccc2c1SCC(=O)N1CCCc2ccccc21`: the cell number change is -0.735%. Consider `O=C(O)c1cccc(Nc2nc(N3CCOCC3)nc(N3CCOCC3)n2)c1`, for which the cell number change is -169%. Besides, under setting [1], the half-maximal activity concentration (AC50) was 29.1 µM [falling, single point]. Also, the AC50 under setting [2] is 29.1 µM [falling, single point]. Take `O=C(c1ccc2c(=O)n(C3CCCC3)c(=S)[nH]c2c1)N1CCCCCC1`: the cell number change was -36.1%. The AC50 under setting [1] was 10.3 µM [falling, partial curve, poor fit]. Also, the half-maximal activity concentration (AC50) under setting [2] is 18.4 µM [falling, partial curve, poor fit]. For the compound `Cc1ccc(-c2noc(CCCOc3ccc(Cl)cc3Cl)n2)cc1`, the AC50 under setting [1] is 0.00517 µM [falling, full curve, poor fit]. Turning to `O=C(Cn1[nH]c(=O)c2ccccc2c1=O)N1CC=C(c2ccccc2)CC1`, the cell number change turned out to be 305%. Further, the half-maximal activity concentration (AC50) under setting [1] was 20.6 µM [rising, partial curve]. For the same compound, under setting [2], the AC50 is 20.6 µM [rising, partial curve].

As for `CN(C(=O)c1ccc(NC(=O)Cc2cccc(NC(=O)C3CCN(C(=O)C4CCC4)CC3)c2)cc1)C1CCCC1`, the cell number change was found to be 16.3%. Besides, the AC50 under setting [1] was 1.03 µM [falling, single point].

In the case of `Cc1ccc(S(=O)(=O)NC(C)(C)C)cc1C(=O)OCC(=O)N1CCCC1=O`, the cell number change amounted to 14.4%. The AC50 under setting [2] is 1.3 µM [falling, full curve, poor fit]. Regarding `COc1ccc(CCNCC(=O)Nc2ccc(C(=O)N3CCCCC3)cc2)cc1`, the cell number change was -2.17%. For the compound `O=C(Nc1cccc(-c2cnc3ccccc3n2)c1)c1ccc(Cl)cc1`, the cell number change is -33.4%. For the same compound, under setting [1], the AC50 is 0.00461 µM [falling, full curve, poor fit].

Consider `Cc1cc(C)n(-c2nc(NCC(C)O)c3c4c(sc3n2)CCCC4)n1` (centres undefined), for which the cell number change was -30.3%. Besides, under setting [1], the AC50 was 29.1 µM [falling, single point]. For the same compound, the concentration at half-maximal activity (AC50) under setting [2] was 29.1 µM [falling, single point]. For `CC/C=C(/NC(C)=O)c1ccccc1`, the cell number change stood at 8.8%. Also, the AC50 under setting [2] was 3.66 µM [rising, single point]. As to `O=C(Cc1ccccc1)NC(c1ccco1)c1c(O)ccc2ccccc12` (centres undefined), the cell number change is -24.1%. In addition, under setting [2], the AC50 is 14.6 µM [falling, single point].

As for `CS(=O)(=O)N1CCc2cc(-c3csc(NC(=O)Cc4ccccc4)n3)ccc21`, the cell number change is -29.1%. Under setting [2], the half-maximal activity concentration (AC50) is 18.4 µM [falling, partial curve, poor fit]. For `CC(C)(C)C(=O)Nc1ccc(C(=O)COC(=O)C2CC2)cc1`, the cell number change is -8%. Turning to `CCCN1CCN(C(=O)Cn2nc(C)n3c(cc4sccc43)c2=O)CC1`, the cell number change stood at 9.06%. Further, under setting [2], the half-maximal activity concentration (AC50) is 0.0651 µM [rising, partial curve, poor fit]. As to `CCN(CC)C(=O)COc1ccc2c3c(c(=O)oc2c1)CCCC3`, the cell number change was found to be 22.8%. On to `CCc1ccccc1NC(=O)NC(C)c1ccc2c(c1)OCO2` (centres undefined), for which the cell number change came out at 18.9%. Also, the AC50 under setting [2] is 20 µM [rising, single point]. In the case of `CC(=O)OCc1c(C(F)(F)F)nn(C)c1Oc1cccc(C(F)(F)F)c1`, the cell number change stood at 3.32%. Further, the AC50 under setting [2] was 2.06 µM [rising, partial curve, poor fit]. For `COc1ccc(S(=O)(=O)Nc2c(C)cc(C)cc2C)c2cccnc12`, the cell number change is 16.8%. As for `NC1=NCC(O)=C1c1nc2ccccc2[nH]1`, the cell number change came to 80.2%. For the same compound, the concentration at half-maximal activity (AC50) under setting [1] was 6.51 µM [rising, partial curve, poor fit]. As for `O=C1CCCc2c1nc(-c1ccc(F)cc1)n2O`, the cell number change was found to be 7.72%. Besides, the AC50 under setting [1] is 6.51 µM [rising, single point]. Besides, the concentration at half-maximal activity (AC50) under setting [2] was 6.51 µM [rising, single point]. For `COc1ccc(S(=O)(=O)N(C)CC(=O)N2CCC(C(N)=O)CC2)cc1`, under setting [2], the AC50 is 0.461 µM [falling, full curve]. Regarding `CCCCN(C(=O)CCC(=O)Nc1cc(C)on1)C(C(=O)NC1CCCC1)c1ccc(OC)cc1` (centres undefined), the cell number change is 6.52%. Also, under setting [2], the AC50 is 6.51 µM [rising, single point]. For the compound `O=C(/C=C/c1c(F)cccc1Cl)N1CCc2ccccc2C1`, the cell number change is -5.47%. For `COC(=O)C1=C(C)Nc2nc(SCc3ccccc3)[nH]c(=O)c2C1c1cccs1` (centres undefined), the AC50 under setting [2] was 18.4 µM [rising, single point].

The term AC50 denotes the concentration giving half of the maximal activity seen.
